# According to PubChem BioAssay AID588590 (National Center for Advancing Translational Sciences (NCATS), 2011):
# Amino acid sequences for entries named in this document (tags omitted). A change or cut given only in a name is not applied to a line headed by its entry.
# UniProt Q9UNA4: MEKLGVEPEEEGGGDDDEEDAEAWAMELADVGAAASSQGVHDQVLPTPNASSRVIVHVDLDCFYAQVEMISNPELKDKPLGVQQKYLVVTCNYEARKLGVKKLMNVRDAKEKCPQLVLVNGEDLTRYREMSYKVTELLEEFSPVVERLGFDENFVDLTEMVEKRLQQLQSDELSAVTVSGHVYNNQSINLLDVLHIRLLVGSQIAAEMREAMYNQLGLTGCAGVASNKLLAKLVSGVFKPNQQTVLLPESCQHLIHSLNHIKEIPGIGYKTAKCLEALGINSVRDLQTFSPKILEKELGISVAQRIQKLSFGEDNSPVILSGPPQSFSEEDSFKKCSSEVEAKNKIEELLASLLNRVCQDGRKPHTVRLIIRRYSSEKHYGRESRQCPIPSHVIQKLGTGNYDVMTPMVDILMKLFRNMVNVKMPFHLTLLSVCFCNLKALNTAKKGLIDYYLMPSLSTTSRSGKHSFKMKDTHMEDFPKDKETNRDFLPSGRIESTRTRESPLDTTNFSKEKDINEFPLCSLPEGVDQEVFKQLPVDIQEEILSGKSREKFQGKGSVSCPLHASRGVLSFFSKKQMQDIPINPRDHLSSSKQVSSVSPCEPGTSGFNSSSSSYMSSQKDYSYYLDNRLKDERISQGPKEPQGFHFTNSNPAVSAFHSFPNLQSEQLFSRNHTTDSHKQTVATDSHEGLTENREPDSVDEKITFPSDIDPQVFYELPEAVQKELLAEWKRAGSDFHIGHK
# Values joined by “and” are separate entries in the source; they are usually repeats but may differ in a detail not shown here. Equal entries are not always repeated. The whole screen tested about 390,000 compounds, of which about 4,000 (1%) were called active. This list was built around the results that the source calls inconclusive (neither active nor inactive); the mix of calls is not that of the screen. Calls follow the shape of the dose curve; as a rule, active = well fitted inhibition curve with a large enough effect; inconclusive = small, poorly fitted or top-dose-only effect, or another doubt; inactive = no such curve, though single readings can be large or run the other way. Potencies of inconclusive entries are doubtful fits and often do not repeat.
# Target: DNA polymerase iota (Homo sapiens) (UniProt Q9UNA4)
# Experiment: qHTS for Inhibitors of Polymerase Iota
# Conditions: Pol iota fluorescent replication assay, 10 min; series mostly up to 115 µM; activity, negative = inhibition: at the top concentration
# Procedure, shortened: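 Pol iota at 10 nM preincubated 15 min with compounds at room temperature; reaction started with fluorescent substrate, 50 nM final. Fluorescence read kinetically at 0 and 10 min; buffer-only wells as negative control.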
# Potency is read from the fitted curve at half-maximal effect.
SMILES,Potency,"activity, negative = inhibition"
COc1cc(C(=O)NCc2ccc(S(N)(=O)=O)cc2)ccc1OCC(=O)Nc1cccc(C(F)(F)F)c1,"inconclusive: 56.2 µM [inhibitor, partial curve, poor fit]",–
CC1Cc2ccccc2N1Cc1cc(=O)c(OCC(=O)Nc2ccccc2)co1 (configuration not stated),"inconclusive: 50.1 µM [inhibitor, partial curve]",–
COc1ccccc1C(CNC(=O)c1ccc(NS(=O)(=O)c2ccc(F)c(C)c2)cc1)N(C)C (configuration not stated),"inconclusive: 89.1 µM [inhibitor, single point]",–
O=C(COC(=O)c1cc[n+]([O-])cc1)Nc1ccc([N+](=O)[O-])cc1Cl,–,inactive: 12.7%
CCNCCNC(=O)c1c(O)c2c([nH]c1=O)CCCC2,"inconclusive: 50.1 µM [inhibitor, partial curve]",–
COC(=O)c1ccc(NC(=O)CN2C(=O)c3cccc4cccc2c34)cc1,–,inactive: 18.9%
CCOC(=O)/C(C#N)=C\c1ccc(OC)c(OC)c1,–,inactive: 63.6%
COc1cc(/C=N/NC(=O)c2cc(-c3ccccc3)sc2N)cc(OC)c1OC,–,inactive: -16.9% [at 58.9 µM]
CCOC(=O)c1sc(N2N=C(C)C(N=Nc3cccc(C)c3)C2=O)nc1C (configuration not stated),active: 50.1 µM,–
COc1ccc(OC)c(CCNC(=O)c2c3c(nc4ccccc24)C(=O)N(C2CCCCC2)C3)c1,"inconclusive: 39.8 µM [inhibitor, partial curve, poor fit]",–
CCOc1ccc(-c2cc(NC(=O)c3c(F)cccc3F)c(C(=O)O)s2)cc1,"inconclusive: 15.8 µM [inhibitor, full curve, poor fit]",–
CCN(CC)c1ccc(/C=C/C(=O)c2ccc(Br)cc2)cc1,"inconclusive: 28.2 µM [inhibitor, partial curve, poor fit]",–
CCN(CCCNC(=O)c1cc(Nc2ccccc2OC)nc2ccccc12)c1cccc(C)c1,"inconclusive: 89.1 µM [inhibitor, single point]",–
Cc1ccc(CNC(=O)C2CCCN(Cc3nc(-c4cccc(C)c4)oc3C)C2)cc1 (configuration not stated),"inconclusive: 100 µM [inhibitor, partial curve, poor fit]",–
CC1(C)CC(=O)C2=C(C1)N(Cc1ccccc1)C(=O)C2(O)C(F)(F)F (configuration not stated),"inconclusive: 39.8 µM [inhibitor, partial curve, poor fit]",–
Cc1c(-c2nc(-c3ccc4c(c3)OCO4)no2)nnn1-c1cccc(C(F)(F)F)c1,–,inactive: 19.1%
CC(=O)c1ccc(S(=O)(=O)N2CCN(C(C)=O)CC2)cc1,–,inactive: 110%
O=C(CCN1C(=O)S/C(=C/c2ccc(F)cc2)C1=O)Nc1ccc(O)c(C(=O)O)c1,"inconclusive: 63.1 µM [inhibitor, single point]",–
Cc1ccc2nc(NC(=O)C3CCN(S(=O)(=O)c4cc([N+](=O)[O-])ccc4Cl)CC3)sc2c1,active: 44.7 µM,–
Cc1ccc(N=Cc2c(C)[nH]n(-c3ccccc3)c2=O)nc1,"inconclusive: 39.8 µM [inhibitor, single point]",–
CCNc1ccc(C(=O)OCC(=O)N2c3ccccc3NC(=O)C2(C)C)cc1[N+](=O)[O-],"inconclusive: 89.1 µM [inhibitor, single point]",–

SMILES,Potency,"activity, negative = inhibition"
COc1ccc(S(=O)(=O)N2CCN(C(=O)/C=C/c3ccco3)CC2)cc1,active: 22.4 µM,–
Cc1ccc(-c2nc3c(c(SCC(=O)Nc4cccc(C(=O)O)c4)n2)Cc2cccc(C)c2O3)cc1,"inconclusive: 3.55 µM [inhibitor, full curve, poor fit] and inconclusive: 35.5 µM [inhibitor, partial curve] and inconclusive: 3.98 µM [inhibitor, full curve, poor fit]",–
O=C(/C=C/c1ccccc1O)c1ccccc1,"inconclusive: 31.6 µM [inhibitor, partial curve, poor fit]",–
O=C(O)CC1NC(=O)N(c2ccc(Cl)cc2)C1=O (configuration not stated),"inconclusive: 89.1 µM [inhibitor, single point]",–
Cc1ccc2oc(C(=O)Nc3ccc(S(=O)(=O)Nc4nc(C)cc(C)n4)cc3)cc(=O)c2c1,"inconclusive: 39.8 µM [inhibitor, partial curve, poor fit]",–
Cc1ccc(OCCOCCN2CCN(C)CC2)c([N+](=O)[O-])c1,"inconclusive: 12.6 µM [inhibitor, partial curve, poor fit]",–
CCCNC(=O)CSc1cn(CC(=O)N2CCCCCC2)c2ccccc12,–,inactive: -5.67%
O=C(O)Cc1ccc(NC(=O)c2ccc(NC(=O)c3ccco3)cc2)cc1,active: 44.7 µM,–
CC1(C)C(/C=C/C=C/C=C/C=C2\N(CCCCS(=O)(=O)O)c3ccc4ccccc4c3C2(C)C)=[N+](CCCCS(=O)(=O)[O-])c2ccc3ccccc3c21,active: 12.6 µM,–
O=C(O)/C(=C\c1ccc(Cl)c([N+](=O)[O-])c1)c1ccc(S(=O)(=O)N2CCCCC2)s1,"inconclusive: 20 µM [inhibitor, partial curve, poor fit]",–
Cc1ccc(-c2csc(/C(C#N)=C(\O)CN3CCN(C(=O)c4ccco4)CC3)n2)cc1,"inconclusive: 35.5 µM [inhibitor, partial curve, poor fit]",–
COc1cccc(N2CCN(C(=O)c3cc(-c4ccccc4)nc4c3cnn4C(C)C)CC2)c1,"inconclusive: 39.8 µM [inhibitor, partial curve, poor fit]",–
O=C(CSc1ncn[nH]1)NCCc1ccc(Cl)cc1,"inconclusive: 100 µM [inhibitor, partial curve, poor fit]",–
COc1ccc2nc(-c3ccccc3)cc(C(=O)OCC(=O)N3CCCCC3)c2c1,"inconclusive: 56.2 µM [inhibitor, partial curve, poor fit]",–
CN(C)c1ccc(/C=C/c2ccnc3ccc4ccccc4c23)cc1,"inconclusive: 63.1 µM [inhibitor, partial curve, poor fit]",–
CCOC(=O)C1=C(N)n2c(s/c(=C\c3ccco3)c2=O)=C(C(=O)OC(C)C)C1c1ccco1 (configuration not stated),"inconclusive: 14.1 µM [inhibitor, full curve, poor fit]",–
Cc1ccc2c(=O)cc(C(=O)Nc3nc4ccc(Cl)cc4s3)oc2c1,–,inactive: 4.63%
C=CCNCc1cc(=O)n2c(-c3ccccc3)csc2n1,"inconclusive: 20 µM [inhibitor, single point]",–
CC(=O)CCc1c(C)[nH]c2ccccc2c1=O,"inconclusive: 79.4 µM [inhibitor, partial curve]",–
CC(=O)N(CCc1cccc(C)c1)Cc1cc2cc(C)ccc2[nH]c1=O,"inconclusive: 39.8 µM [inhibitor, single point]",–
CCN(CC)c1ccc(/C=C(\C#N)C(N)=O)cc1,–,inactive: 27.4%

SMILES,Potency,"activity, negative = inhibition"
O=C1CC(=O)N(Cc2ccco2)C(=S)N1,"inconclusive: 2.51 µM [inhibitor, full curve, poor fit]",–
CS(=O)(=O)n1nc(-c2ccc(Cl)cc2)nc1N,–,inactive: 90.8%
CCOc1cc(CNc2ccc3c(c2)OCCO3)cc(Br)c1OC,"inconclusive: 31.6 µM [inhibitor, single point]",–
CCn1c(O)c(N=NC(=O)CNC(=O)Cc2ccccc2)c2ccccc21,"inconclusive: 89.1 µM [inhibitor, single point]",–
CCn1c(C)cc(/C=C2\NC(=O)N(CC(=O)Nc3cccc(C)c3)C2=O)c1C,–,inactive: 9.33%
Cc1nn(C(C)(C)C)c(OC(=O)c2c(F)cccc2F)c1Sc1ccccc1,"inconclusive: 50.1 µM [inhibitor, partial curve, poor fit]",–
Cc1ccc(C(O)(COC(=O)C(C)C)COC(=O)C(C)C)c(O)c1,"inconclusive: 22.4 µM [inhibitor, partial curve, poor fit]",–
COc1cccc(Oc2cn[nH]c2-c2ccc(OCC(=O)NN)cc2O)c1,"inconclusive: 39.8 µM [inhibitor, single point]",–
Cc1[nH]nc(-c2cccnc2)c1N=NN(C)C,"inconclusive: 28.2 µM [inhibitor, partial curve]",–
CCOc1ccccc1CNc1nc2nc(C)c(CC(=O)OC)c(=O)n2[nH]1,"inconclusive: 63.1 µM [inhibitor, partial curve, poor fit]",–
COc1cc(N2Cc3ccccc3C2)ccc1C=O,"inconclusive: 50.1 µM [inhibitor, partial curve, poor fit]",–
COc1ccc(Cl)cc1S(=O)(=O)N1CCN(C(=O)c2cc(-c3ccc(Br)cc3)n[nH]2)CC1,–,inactive: 10.8%
O=C(Nc1ccc(-c2cn3ccsc3n2)cc1)C1CC1,"inconclusive: 39.8 µM [inhibitor, partial curve, poor fit]",–
CC(C)CNC1=CC(=O)CC(c2ccco2)C1 (configuration not stated),active: 28.2 µM,–
Cc1ccc(C(=O)N[C@H](C(=O)OCc2cc(=O)n3c(n2)sc2ccccc23)C(C)C)cc1,"inconclusive: 112 µM [inhibitor, partial curve, poor fit]",–
Cc1ccc(SC2=C(Sc3ccc(C)cc3)C(=O)c3ccccc3C2=O)cc1,active: 6.31 µM,–
CC(=O)Nc1ccc(N2C(=O)c3cccc4c(O)ccc(c34)C2=O)cc1,"inconclusive: 15.8 µM [inhibitor, partial curve, poor fit]",–
Cc1cccc(C(=O)Nc2ccc(C(=O)/C=C/c3cccnc3)cc2)c1,"inconclusive: 14.1 µM [inhibitor, full curve]",–
COc1ccc2cc(CN(CC3CCCO3)C(=O)Nc3ccccc3)c(=O)[nH]c2c1 (configuration not stated),"inconclusive: 89.1 µM [inhibitor, single point]",–
Cc1ccc(CNC(=O)C(C)n2c(=O)cc(-c3ccccc3)c3c(C)nn(C)c32)cc1 (configuration not stated),–,inactive: 13.8%
